No constants are given. Whether binding was seen depends on the method and setting. Some results given as binding are weak or reduced against the parent protein; the word gives no strength.
Legend:
[1] = molecular target: T1, Thymic Stromal Lymphopoietin Receptor (TSLPR), human, on ALL cells (human) (UniProt Q9HC73); assay: flow cytometry on TSLPRhi ALL cells, hybridoma supernatant, goat anti-mouse-PE
T1 sequence (looked up): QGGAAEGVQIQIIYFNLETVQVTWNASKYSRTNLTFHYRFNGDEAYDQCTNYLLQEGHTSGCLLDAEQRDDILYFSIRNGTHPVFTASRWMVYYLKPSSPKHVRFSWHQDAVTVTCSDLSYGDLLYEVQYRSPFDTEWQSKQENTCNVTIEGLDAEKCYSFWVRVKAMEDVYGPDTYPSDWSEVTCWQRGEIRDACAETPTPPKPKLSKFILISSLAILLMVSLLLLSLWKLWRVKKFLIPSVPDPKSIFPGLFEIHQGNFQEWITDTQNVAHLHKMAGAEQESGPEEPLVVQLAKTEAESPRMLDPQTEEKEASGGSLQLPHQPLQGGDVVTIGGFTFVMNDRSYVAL

[2] = molecular target: T1, Thymic Stromal Lymphopoietin Receptor (TSLPR), human, on ALL cells (human); assay: flow cytometry on ALL cells overexpressing TSLPR, PE-conjugated goat anti-mouse antibody

binding [1]: binds | binding [2]: binds
B1: 3G11 anti-TSLPR antibody (antibody, V domains shown)
VH: QVTLKESGPGILKPSQTLSLTCSFSGFSLSTSGMGVGWIRQPSGKGLEWLAHIWWDDDKYYNPSLKSQLTISKDTSRNQVFLKITSVDTADTATYYCSRRPRGTMDAMDYWGQGTSVTVSS
VL: DIVMTQAASSLSASLGDRVTISCRASQDISKYLNWYQQKPDGTVKLLIYYTSRLHSGVPSRFSGSGSGTDYSLTIRNLEQEDIATYFCQQVYTLPWTFGGGTKLEIK
